# Results: PubChem BioAssay (NCATS)
# Chains of the proteins cited; added tags and fusions are not shown. Lines headed by an entry give the natural chain unless they say otherwise; changes in a name come on top.
# UniProt Q03431: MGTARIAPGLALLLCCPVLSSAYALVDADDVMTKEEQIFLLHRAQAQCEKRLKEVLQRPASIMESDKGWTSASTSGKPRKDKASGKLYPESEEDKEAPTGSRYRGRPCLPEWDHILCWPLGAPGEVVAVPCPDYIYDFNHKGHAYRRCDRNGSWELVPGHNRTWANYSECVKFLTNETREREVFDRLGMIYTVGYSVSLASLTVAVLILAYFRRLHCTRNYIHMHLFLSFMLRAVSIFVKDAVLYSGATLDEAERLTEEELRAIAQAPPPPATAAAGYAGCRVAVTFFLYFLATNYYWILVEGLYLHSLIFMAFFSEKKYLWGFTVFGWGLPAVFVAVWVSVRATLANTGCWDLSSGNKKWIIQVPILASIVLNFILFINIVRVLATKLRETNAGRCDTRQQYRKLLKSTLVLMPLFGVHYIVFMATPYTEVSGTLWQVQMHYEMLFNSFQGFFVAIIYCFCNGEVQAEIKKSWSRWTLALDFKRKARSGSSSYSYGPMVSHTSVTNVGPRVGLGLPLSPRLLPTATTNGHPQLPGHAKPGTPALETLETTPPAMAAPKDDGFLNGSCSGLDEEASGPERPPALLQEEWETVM
# UniProt Q9NUW8, whole entry, looked up: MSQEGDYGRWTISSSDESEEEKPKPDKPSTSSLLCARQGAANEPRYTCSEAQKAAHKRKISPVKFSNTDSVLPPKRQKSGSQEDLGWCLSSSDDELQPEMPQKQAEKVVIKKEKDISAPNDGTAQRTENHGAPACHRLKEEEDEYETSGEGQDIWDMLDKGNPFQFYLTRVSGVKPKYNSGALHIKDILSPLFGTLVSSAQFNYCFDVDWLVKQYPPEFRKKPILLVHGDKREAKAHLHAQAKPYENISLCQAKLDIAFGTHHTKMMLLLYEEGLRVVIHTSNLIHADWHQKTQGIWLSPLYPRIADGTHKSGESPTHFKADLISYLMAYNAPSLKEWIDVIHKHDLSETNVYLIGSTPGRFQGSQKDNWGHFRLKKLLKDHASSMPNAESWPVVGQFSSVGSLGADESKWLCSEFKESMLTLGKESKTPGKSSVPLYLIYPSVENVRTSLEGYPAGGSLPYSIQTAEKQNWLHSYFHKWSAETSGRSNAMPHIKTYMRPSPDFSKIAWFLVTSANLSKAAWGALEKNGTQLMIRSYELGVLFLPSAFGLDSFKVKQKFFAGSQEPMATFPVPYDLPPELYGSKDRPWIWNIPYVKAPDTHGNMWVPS
# UniProt P11712, whole entry, looked up: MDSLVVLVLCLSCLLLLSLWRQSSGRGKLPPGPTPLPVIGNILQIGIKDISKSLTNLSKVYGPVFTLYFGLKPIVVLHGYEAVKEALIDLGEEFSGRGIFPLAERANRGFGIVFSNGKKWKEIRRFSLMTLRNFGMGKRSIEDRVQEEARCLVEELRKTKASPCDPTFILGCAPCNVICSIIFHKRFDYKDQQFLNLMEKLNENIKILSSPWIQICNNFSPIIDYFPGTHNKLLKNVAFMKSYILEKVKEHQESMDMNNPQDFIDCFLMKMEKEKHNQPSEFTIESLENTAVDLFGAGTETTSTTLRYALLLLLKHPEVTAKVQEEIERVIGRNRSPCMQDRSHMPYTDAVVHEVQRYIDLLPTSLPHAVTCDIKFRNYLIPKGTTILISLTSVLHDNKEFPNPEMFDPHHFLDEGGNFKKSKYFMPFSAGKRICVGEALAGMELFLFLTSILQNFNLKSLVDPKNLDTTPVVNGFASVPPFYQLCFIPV
# UniProt P16066: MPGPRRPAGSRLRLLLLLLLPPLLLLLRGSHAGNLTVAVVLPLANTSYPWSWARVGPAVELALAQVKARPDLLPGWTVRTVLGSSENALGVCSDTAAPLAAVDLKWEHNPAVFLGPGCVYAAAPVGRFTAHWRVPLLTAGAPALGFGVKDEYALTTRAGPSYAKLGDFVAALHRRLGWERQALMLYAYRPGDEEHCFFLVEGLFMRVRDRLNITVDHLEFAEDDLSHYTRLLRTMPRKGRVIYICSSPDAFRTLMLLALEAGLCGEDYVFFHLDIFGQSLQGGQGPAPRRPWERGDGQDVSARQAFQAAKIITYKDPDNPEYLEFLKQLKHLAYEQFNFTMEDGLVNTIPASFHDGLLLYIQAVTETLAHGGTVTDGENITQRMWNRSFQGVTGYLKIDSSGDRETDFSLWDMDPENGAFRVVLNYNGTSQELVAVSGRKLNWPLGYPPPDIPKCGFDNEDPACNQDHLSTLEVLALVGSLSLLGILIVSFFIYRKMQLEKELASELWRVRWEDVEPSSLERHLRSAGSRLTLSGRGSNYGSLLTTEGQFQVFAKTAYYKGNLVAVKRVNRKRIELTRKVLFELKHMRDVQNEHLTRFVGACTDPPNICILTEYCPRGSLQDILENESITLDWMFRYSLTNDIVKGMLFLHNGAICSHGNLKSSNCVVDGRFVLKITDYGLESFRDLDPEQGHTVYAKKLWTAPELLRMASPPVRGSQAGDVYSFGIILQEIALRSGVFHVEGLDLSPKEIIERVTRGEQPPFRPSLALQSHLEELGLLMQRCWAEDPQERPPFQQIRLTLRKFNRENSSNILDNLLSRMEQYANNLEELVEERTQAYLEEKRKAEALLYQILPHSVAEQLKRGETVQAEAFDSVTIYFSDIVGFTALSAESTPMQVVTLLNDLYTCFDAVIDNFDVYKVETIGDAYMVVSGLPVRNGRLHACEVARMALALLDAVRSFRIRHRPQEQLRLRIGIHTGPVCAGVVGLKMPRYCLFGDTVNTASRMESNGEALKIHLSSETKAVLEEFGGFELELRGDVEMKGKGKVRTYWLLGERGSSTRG
# “And” between values parts separate entries of the source, which are not always exact repeats. Identical values can stand only once. The shares of active, inactive and inconclusive entries below differ from those in the screen. For some assays here: Potencies beside an inconclusive call are fits to weak or partial responses and may not hold up. The source made the active and inactive calls. Unless noted, calls follow the shape of the dose curve; as a rule, active = well fitted curve in the direction sought with a large enough effect; inconclusive = small, poorly fitted or top-dose-only effect, or another doubt; inactive = no such curve, though single readings can be large; an effect the other way counts as inactive or inconclusive.
# Assays:
# [1] = target: Parathyroid hormone/parathyroid hormone-related peptide receptor (Homo sapiens) (UniProt Q03431); assay: qHTS for PTHR1 Agonists: Optimization Screen against the NCGC LOPAC library (AID 1347079); details: HEK293 GP2 PTHR1 GloSensor cAMP luminescence, 1 h; series mostly up to 57.1 µM;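 also: GloSensor cAMP luminescence in HEK-293 GP2 cells expressing human PTHR1 with IBMX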
# How it was run: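 Compounds were tested across a qHTS titration. PTHR1-expressing GP2 cells report cAMP rises via GloSensor luminescence after 1 hr compound exposure at 37C with IBMX present.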
# [2] = target: Tyrosyl-DNA phosphodiesterase 1 (Homo sapiens) (UniProt Q9NUW8); assay: Confirmation Assay for Inhibitors of Tyrosyl-DNA Phosphodiesterase (TDP1) (AID 489007); details: recombinant human TDP1 enzymatic activity, dose-response; also: potency is read from the fitted curve at half-maximal effect; nearly all actives have a fitted effect of over 40% in size
# How it was run: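 Recombinant E. coli-expressed Tdp1 (1 nM final) was preincubated with compounds 15 min at room temperature, then reacted 5 min with 15 nM 5'-biotin/3'-phosphotyrosine-FITC DNA substrate; cleavage read as loss of AlphaScreen signal (10 ug/ml beads, 10 min).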
# [3] = target: Cytochrome P450 2C9 (Homo sapiens) (UniProt P11712); assay: qHTS Assay for Inhibitors and Substrates of Cytochrome P450 2C9 (AID 883); details: recombinant CYP2C9, luciferin-H luminescence, 60 min; series mostly up to 57.1 µM; also: potency is read from the fitted curve at half-maximal effect; nearly all actives have a fitted effect of over 60% in size
# How it was run: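 CYP2C9 deoxyluciferin hydroxylation, 37C, 60 min with NADPH regeneration; 10nM enzyme, 100uM Luciferin-H (KM). Glo detection reagent stopped reaction; luminescence normalized to sulphaphenazole (57uM) full inhibition.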
# [4] = qHTS of pediatric cancer cell lines to identify multiple opportunities for drug repurposing: Primary screen for MG 63 (6-TG R) cells (AID 1347105); details: MG 63 (6-TG R) viability, CellTiter-Glo, 48 h; series mostly up to 46 µM; also: nearly all actives have a fitted effect of over 50% in size
# How it was run: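 Viability was measured as metabolically active cells after 48 hours of treatment, read by CellTiter-Glo luminescence. Compounds were tested at multiple final concentrations, giving concentration-response curves.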
# [5] = target: Atrial natriuretic peptide receptor 1 (Homo sapiens) (UniProt P16066); assay: Natriuretic polypeptide receptor (hNpr1) antagonism - Pilot CMLD screen (AID 1347052; calls by dose curve;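 also: cGMP level read as GloSensor luciferase luminescence after agonist stimulation; potency is read from the fitted curve at half-maximal effect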); details: HEK293 hNpr1 GloSensor cGMP luminescence, ANP-stimulated
smiles,measurement,setting,value
N[C@@]1(C(=O)O)CC[C@@H](C(=O)O)C1,Potency,[1],inactive
O=C(O)c1cc[c]([Hg][Cl])cc1,Potency,[2],active: 56.2 µM
O=[N+]([O-])c1cc(O)c(O)c([N+](=O)[O-])c1,Potency,[3],active: 10 µM and active: 794 nM
Clc1ccccc1C(c1ccccc1)(c1ccccc1)n1cccn1,Potency,[4],inactive
CCC1CN2CCC1CC2[C@@H](Oc1cc2ccccc2c2ccccc12)c1ccnc2ccc(O)cc12 (stereo not given in full),Potency,[5],"inconclusive: 1.19 µM [inhibitor, single point]"
